Literature values, collected in patent publication US10772875B2, “Agents enhancing HuR/ELAV protein levels for use in the treatment of BRAF-mutated cancers” (LES HOPITAUX UNIVERSITAIRES DE GENEVE, priority 2017, dated 2020).
For at least one compound, name, drawing or mass did not settle the structure.

Tested on: thyroid cancers
Conditions: thyroid cancers (Hayes et al., 2012); cited from earlier work

With Cn1cnc2c(F)c(Nc3ccc(Br)cc3Cl)c(C(=O)NOCCO)cc21 [selumetinib] as the compound, how does the “response of thyroid cancers” value read?
Its value is “do not respond”.
